Data reported in patent US10525115B2 (Immatics Biotechnologies GmbH, priority 2014, dated 2020).

Assays:
Set-up in all cases: species or system human
primary AML samples = test: HLA class I ligandome analysis (W6/32 immunoaffinity purification, LC-MS/MS) of primary AML samples; settings: for Number of positive AMLs: HLA class I ligandome, 15 AML samples; for AML-exclusivity with regard to HLA presentation: versus PBMC and BMNC of healthy donors
PBMC of healthy donors = test: HLA class I ligandome analysis (LC-MS/MS) of healthy donor PBMC; settings: HLA class I ligandome, 30 PBMC samples; first figure of the cell
BMNC of healthy donors = test: HLA class I ligandome analysis (LC-MS/MS) of healthy donor BMNC; settings: HLA class I ligandome, 5 BMNC samples; second figure of the cell
[1] = test system: cancer tissues in comparison to non-cancerous tissues and organs; test: Presentation profile / over-presentation by label-free LC-MS (XPRESIDENT), tumor versus normal tissues, other proliferative diseases; settings: other proliferative diseases / organs (other than AML) that over- or exclusively present the peptide; Table 5

Substance | Number of positive AMLs (primary AML samples) | Number of positive healthy donors (PBMC) (PBMC of healthy donors) | Number of positive healthy donors (BMNC) (BMNC of healthy donors) | Proliferative disease and location thereof [1] | AML-exclusivity with regard to HLA presentation (primary AML samples)
398 (VEVPETPKA; listed as Homo sapiens) [compound 398] | 1 | 2 | 1 | lymph node, carcinoma of breast | 
380 (MAEKAKQIY; listed as Homo sapiens) [compound 380] | 2 | 0/0 | 0/0 | kidney, clear cell renal cell carcinoma, colon, non- Hodgkin's lymphoma | 
416 (LGASNRAFV; listed as Homo sapiens) [compound 416] | 0 | 0 | 1 | spleen, chronic myeloid leukemia | 
369 (AELEAARL; listed as Homo sapiens) [compound 369] | 0 | 1 | 0 | lung, non-small cell lung carcinoma, testis, seminoma | 
426 (DVPDGTLVTVM; listed as Homo sapiens) [compound 426] | 3 | 1 | 0 | pancreas, adenocarcinoma, breast, carcinoma | 
357 (LEKQLIEL; listed as Homo sapiens) [compound 357] | 0 | 1 | 0 | stomach, adenocarcinoma, rectum, adenocarcinoma | 
419 (QPMEPNPRVPL; listed as Homo sapiens) [compound 419] | 1 | 0/0 | 0/0 | spleen, chronic myeloid leukemia | 
355 (DTTLPASAR; listed as Homo sapiens) [compound 355] | 1 | 0/0 | 0/0 | stomach, adenocarcinoma, rectum, adenocarcinoma | 
406 (DFTPEPAAR; listed as Homo sapiens) [compound 406] | 2 | 0/0 | 0/0 | spleen, chronic myeloid leukemia | 
354 (SAFADRPAF; listed as Homo sapiens) [compound 354] | 0 | 1 | 0 | pancreas, adenocarcinoma, myometrium, leiomyoma | 
430 (GEQKPTGTF; listed as Homo sapiens) [compound 430] | 1 | 0/0 | 0/0 | stomach, metastatic, ovary, granulosa cell tumor | 
411 (FEQVMRIGL; listed as Homo sapiens) [compound 411] | 1 | 0/0 | 0/0 | spleen, chronic myeloid leukemia | 
389 (IIKEYTDVY; listed as Homo sapiens) [compound 389] | 0 | 1 | 0 | lymph node, carcinoma of breast | 
384 (AFTVHFSGQF; listed as Homo sapiens) [compound 384] | 2 | 0/0 | 0/0 | omentum, adenocarcinoma | 
397 (TEVSKTPEA; listed as Homo sapiens) [compound 397] | 3 | 4 | 2 | lymph node, carcinoma of breast | 
353 (FLDPRPLTV; listed as Homo sapiens) [compound 353] | 1 | 6 | 1 | pancreas, adenocarcinoma, myometrium, leiomyoma | 
410 (ETVGQLGTVLR; listed as Homo sapiens) [compound 410] | 1 | 0 | 1 | spleen, chronic myeloid leukemia | 
443 (TLGEFLKL; listed as Homo sapiens) [compound 443] | 2 | 1 | 0 | stomach, metastatic, ovary, Mullerian mixed; tumor | 

Substance | Number of positive AMLs (primary AML samples) | Number of positive healthy donors (PBMC) (PBMC of healthy donors) | Number of positive healthy donors (BMNC) (BMNC of healthy donors) | Proliferative disease and location thereof [1] | AML-exclusivity with regard to HLA presentation (primary AML samples)
371 (ESIDQYIER; listed as Homo sapiens) [compound 371] | 2 | 1/1 | 1/1 | colon or rectum, rectum, adenocarcinoma | 
327 (EITPPVVLR; listed as Homo sapiens) [compound 327] | 0 | 5 | 1 | stomach, adenocarcinoma, colon, non-Hodgkin's; lymphoma | 
373 (SVASTPISQR; listed as Homo sapiens) [compound 373] | 1 | 0 | 1 | colon or rectum, rectum, adenocarcinoma | 
440 (ELTLGEFLKL; listed as Homo sapiens) [compound 440] | 2 | 1 | 0 | stomach, metastatic, ovary, Mullerian mixed; tumor | 
328 (GFEITPPVVLR; listed as Homo sapiens) [compound 328] | 0 | 4 | 1 | stomach, adenocarcinoma, colon, non-Hodgkin's; lymphoma | 
447 (LLGHLPAEI; listed as Homo sapiens) [compound 447] | 1 | 0/0 | 0/0 | liver, hepatocellular carcinoma, lung, large cell carcinoma | AML-exclusivity
349 (PSKQLPDQI; listed as Homo sapiens) [compound 349] | 0 | 0 | 1 | lung, non-small cell lung carcinoma, testis, seminoma | 
334 (TPPVVLRL; listed as Homo sapiens) [compound 334] | 2 | 6 | 0 | stomach, adenocarcinoma, colon, non-Hodgkin's; lymphoma | 
400 (REVEIQSHL; listed as Homo sapiens) [compound 400] | 1 | 0/0 | 0/0 | stomach, adenocarcinoma, stomach, adenocarcinoma | AML-exclusivity
401 (EPPAVLLL; listed as Homo sapiens) [compound 401] | 1 | 0/0 | 0/0 | lung, non-small cell lung carcinoma, omentum, adenocarcinoma | AML-exclusivity
340 (GYVPRTAL; listed as Homo sapiens) [compound 340] | 0 | 1 | 0 | lung, non-small cell lung carcinoma, schwannoma | 
348 (NPDELKTTV; listed as Homo sapiens) [compound 348] | 0 | 1 | 0 | lung, non-small cell lung carcinoma, testis, seminoma | 
392 (MPATETKKV; listed as Homo sapiens) [compound 392] | 0 | 1 | 0 | lymph node, carcinoma of breast | 
396 (SMMQTLLTV; listed as Homo sapiens) [compound 396] | 0 | 1 | 0 | lymph node, carcinoma of breast | 
425 (AELRNATAA; listed as Homo sapiens) [compound 425] | 0 | 1 | 0 | pancreas, adenocarcinoma, breast, carcinoma | 
333 (SPIKVTLATL; listed as Homo sapiens) [compound 333] | 0 | 3 | 0 | stomach, adenocarcinoma, lymph node, non- Hodgkin's lymphoma | 
405 (AQISLPRI; listed as Homo sapiens) [compound 405] | 0 | 0 | 1 | spleen, chronic myeloid leukemia | 
